Measurements: article PMC5464891, “Utilizing combinatorial engineering to develop Tie2 targeting antagonistic angiopoetin-2 ligands as candidates for anti-angiogenesis therapy” (Oncotarget, 2017)
These are yes or no findings as the source states them, for the method shown. Some results given as binding are weak or reduced against the parent protein; the word gives no strength.

The chains behind the UniProt entries cited, without tags or fusion partners. Where a name states a change or a piece, a line headed by the entry shows the natural chain unless it says otherwise. Residues count along the entry.
UniProt Q02763: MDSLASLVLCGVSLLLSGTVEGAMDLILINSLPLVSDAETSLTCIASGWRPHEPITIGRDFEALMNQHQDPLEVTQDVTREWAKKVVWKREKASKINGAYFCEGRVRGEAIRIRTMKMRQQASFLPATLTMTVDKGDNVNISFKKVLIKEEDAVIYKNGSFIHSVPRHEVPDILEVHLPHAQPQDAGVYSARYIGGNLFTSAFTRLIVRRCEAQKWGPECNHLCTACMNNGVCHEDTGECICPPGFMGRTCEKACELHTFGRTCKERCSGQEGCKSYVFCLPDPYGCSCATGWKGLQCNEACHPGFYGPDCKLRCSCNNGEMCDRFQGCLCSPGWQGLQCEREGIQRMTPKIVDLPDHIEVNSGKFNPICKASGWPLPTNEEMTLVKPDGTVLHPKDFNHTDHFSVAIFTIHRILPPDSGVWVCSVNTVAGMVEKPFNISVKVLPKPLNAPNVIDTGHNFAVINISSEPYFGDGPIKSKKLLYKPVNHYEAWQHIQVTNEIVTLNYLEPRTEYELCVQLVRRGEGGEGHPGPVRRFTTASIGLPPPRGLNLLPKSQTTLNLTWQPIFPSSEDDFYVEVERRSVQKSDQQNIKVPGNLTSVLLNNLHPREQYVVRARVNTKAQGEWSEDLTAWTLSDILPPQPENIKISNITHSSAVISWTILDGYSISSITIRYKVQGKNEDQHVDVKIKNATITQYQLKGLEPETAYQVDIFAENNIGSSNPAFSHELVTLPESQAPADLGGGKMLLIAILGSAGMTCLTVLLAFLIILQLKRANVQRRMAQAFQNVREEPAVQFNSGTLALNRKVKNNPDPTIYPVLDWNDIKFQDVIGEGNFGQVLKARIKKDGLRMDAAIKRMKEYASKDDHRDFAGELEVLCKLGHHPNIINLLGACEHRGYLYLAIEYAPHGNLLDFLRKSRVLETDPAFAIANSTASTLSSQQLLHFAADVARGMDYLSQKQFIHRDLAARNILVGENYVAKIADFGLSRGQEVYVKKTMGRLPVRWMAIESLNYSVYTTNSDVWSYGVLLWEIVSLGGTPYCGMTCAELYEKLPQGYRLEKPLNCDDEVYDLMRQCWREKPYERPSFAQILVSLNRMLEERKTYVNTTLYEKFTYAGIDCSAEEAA
Cell-expressed Tie2 on TIME cells (human (endogenous in TIME cells)): residues 23-1124 of Q02763

How the values were obtained:
[1] = target: Wild-type Ang2 binding domain (Ang2-BDWT), yeast-displayed (human) (UniProt O15123); experiment: flow cytometry on cells; Ang2-BD displayed on yeast, soluble Tie2-Fc in 20 mM Hepes pH 7.0, 150 mM NaCl, 1% BSA, 1 h at room temperature; detected with anti-human Fc FITC; binding MFI divided by expression MFI (c-Myc) and normalized to Ang2-BDWT; only the binder purified
[2] = target: Cell-expressed Tie2 on TIME cells (human (endogenous in TIME cells)) (UniProt Q02763); experiment: flow cytometry on cells; 10^5 TIME cells with different concentrations of Ang2-BD variants in PBS with 0.1% BSA, 2 h at 4°C; detected with APC anti-FLAG antibody; only the binder purified
[3] = target: Cell-expressed Tie2 on TIME cells (human (endogenous in TIME cells)) (UniProt Q02763); experiment: flow cytometry on cells; competitive binding on TIME cells: Ang2-BD variants without and with 400 ng/ml Ang1 (1000 ng/ml Ang1 also for Ang2-BD_(C2.36)); anti-FLAG detection; only the binder purified

binding [1]	binding [2]	binding [3]	Molecule
binds	–	–	Recombinant human Tie2 (Ala23-Lys745) Fc fusion, soluble Tie2-Fc (from UniProt Q02763 23-745)
–	binds	binds	Ang2-BDWT, soluble (domain or fragment, human, UniProt O15123 281-496, looked up, N-linked carbohydrates removed with Endo Hf; also called wild-type Ang2-BD; parental Ang2-BD; source: Pichia pastoris GS115, purified from culture supernatant (HisTrap, Endo Hf treatment, Superdex 75); not shown: FLAG, N-terminal, kept) FRDCAEVFKSGHTTNGIYTLTFPNSTEEIKAYCDMEAGGGGWTIIQRREDGSVDFQRTWKEYKVGFGNPSGEYWLGNEFVSQLTNQQRYVLKIHLKDWEGNEAYSLYEHFYLSSEELNYRIHLKGLTGTAGKISSISQPGNDFSTKDGDNDKCICKCSQMLTGGWWFDACGPSNLNGMYYPQRQNTNKFNGIKWYYWKGSGYSLKATTMMIRPADF
